2 molecules from article doi:10.1101/2023.05.23.542025 can be followed below.

Protein sequences, listed by entry. Tags and fused reporters are not part of them.
UniProt P45481: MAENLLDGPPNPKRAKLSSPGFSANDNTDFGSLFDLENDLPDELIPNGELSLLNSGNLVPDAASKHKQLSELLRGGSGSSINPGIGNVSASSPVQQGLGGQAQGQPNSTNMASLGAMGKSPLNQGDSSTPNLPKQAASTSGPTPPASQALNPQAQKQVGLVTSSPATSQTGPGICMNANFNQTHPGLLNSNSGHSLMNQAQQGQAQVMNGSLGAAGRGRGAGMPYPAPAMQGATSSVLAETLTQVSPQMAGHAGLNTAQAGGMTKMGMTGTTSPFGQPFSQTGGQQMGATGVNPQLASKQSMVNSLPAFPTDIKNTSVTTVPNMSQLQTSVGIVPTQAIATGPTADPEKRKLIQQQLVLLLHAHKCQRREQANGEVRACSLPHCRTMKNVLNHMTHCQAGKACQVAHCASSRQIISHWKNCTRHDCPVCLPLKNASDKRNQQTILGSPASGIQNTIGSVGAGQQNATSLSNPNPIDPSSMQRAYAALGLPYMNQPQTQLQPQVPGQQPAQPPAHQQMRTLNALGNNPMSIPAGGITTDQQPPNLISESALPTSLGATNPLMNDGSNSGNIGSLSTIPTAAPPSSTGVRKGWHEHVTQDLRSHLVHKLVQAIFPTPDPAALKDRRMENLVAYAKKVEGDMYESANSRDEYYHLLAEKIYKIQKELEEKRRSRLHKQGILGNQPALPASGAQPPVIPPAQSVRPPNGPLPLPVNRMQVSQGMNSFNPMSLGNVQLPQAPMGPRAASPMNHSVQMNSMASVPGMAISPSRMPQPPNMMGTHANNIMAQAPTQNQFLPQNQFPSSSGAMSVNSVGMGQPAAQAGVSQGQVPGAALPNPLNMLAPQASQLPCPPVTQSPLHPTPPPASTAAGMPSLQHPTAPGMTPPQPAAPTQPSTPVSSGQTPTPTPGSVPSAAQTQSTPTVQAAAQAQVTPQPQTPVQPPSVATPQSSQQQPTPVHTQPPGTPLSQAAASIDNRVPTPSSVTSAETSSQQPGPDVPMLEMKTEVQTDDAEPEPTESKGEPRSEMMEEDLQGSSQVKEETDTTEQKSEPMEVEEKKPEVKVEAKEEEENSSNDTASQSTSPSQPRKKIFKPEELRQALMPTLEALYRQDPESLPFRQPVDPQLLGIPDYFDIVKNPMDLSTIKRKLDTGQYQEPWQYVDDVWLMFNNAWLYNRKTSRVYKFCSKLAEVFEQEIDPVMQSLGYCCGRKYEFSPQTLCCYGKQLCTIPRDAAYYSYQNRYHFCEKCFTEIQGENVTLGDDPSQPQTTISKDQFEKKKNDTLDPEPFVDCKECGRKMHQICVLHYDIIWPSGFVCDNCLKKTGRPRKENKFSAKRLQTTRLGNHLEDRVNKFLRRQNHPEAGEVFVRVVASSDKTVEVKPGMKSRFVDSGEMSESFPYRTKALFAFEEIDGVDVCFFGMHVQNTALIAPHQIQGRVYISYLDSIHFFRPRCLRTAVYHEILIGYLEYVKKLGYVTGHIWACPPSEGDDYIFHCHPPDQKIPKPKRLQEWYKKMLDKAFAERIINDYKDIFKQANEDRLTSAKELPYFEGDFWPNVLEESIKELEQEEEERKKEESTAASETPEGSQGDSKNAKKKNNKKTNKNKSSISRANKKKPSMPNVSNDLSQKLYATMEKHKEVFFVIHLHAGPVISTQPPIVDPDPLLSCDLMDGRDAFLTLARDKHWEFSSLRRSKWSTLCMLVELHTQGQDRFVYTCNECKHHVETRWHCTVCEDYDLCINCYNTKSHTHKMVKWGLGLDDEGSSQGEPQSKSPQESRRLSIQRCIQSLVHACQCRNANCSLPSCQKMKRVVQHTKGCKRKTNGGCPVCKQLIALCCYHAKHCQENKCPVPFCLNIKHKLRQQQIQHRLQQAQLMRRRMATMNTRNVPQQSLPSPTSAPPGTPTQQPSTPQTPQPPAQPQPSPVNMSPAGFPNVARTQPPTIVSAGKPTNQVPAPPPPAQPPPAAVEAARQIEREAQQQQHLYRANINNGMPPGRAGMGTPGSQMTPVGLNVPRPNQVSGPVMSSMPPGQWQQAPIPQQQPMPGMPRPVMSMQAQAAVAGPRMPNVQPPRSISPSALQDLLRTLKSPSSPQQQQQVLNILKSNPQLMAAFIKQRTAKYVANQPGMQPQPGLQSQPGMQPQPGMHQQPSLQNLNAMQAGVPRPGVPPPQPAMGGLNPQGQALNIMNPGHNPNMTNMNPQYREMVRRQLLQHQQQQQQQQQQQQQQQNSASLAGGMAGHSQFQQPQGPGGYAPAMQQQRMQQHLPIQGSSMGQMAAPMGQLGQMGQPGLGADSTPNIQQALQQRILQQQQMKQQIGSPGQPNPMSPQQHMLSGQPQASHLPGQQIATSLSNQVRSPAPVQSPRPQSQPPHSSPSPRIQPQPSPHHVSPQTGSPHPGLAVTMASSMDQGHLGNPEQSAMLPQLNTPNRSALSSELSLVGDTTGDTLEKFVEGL

Results are given in words; binding and its absence hold for the method and conditions named. Binding seen in cells or lysates may run through a third protein. Some binding calls cover weakened binding; strength is not graded here. For some of these results: Where a sequence is shown, tags or fusion partners need not be part of it.

One experiment deals with T1, Flag-tagged STAT6 (UniProt P52633).
T1 sequence: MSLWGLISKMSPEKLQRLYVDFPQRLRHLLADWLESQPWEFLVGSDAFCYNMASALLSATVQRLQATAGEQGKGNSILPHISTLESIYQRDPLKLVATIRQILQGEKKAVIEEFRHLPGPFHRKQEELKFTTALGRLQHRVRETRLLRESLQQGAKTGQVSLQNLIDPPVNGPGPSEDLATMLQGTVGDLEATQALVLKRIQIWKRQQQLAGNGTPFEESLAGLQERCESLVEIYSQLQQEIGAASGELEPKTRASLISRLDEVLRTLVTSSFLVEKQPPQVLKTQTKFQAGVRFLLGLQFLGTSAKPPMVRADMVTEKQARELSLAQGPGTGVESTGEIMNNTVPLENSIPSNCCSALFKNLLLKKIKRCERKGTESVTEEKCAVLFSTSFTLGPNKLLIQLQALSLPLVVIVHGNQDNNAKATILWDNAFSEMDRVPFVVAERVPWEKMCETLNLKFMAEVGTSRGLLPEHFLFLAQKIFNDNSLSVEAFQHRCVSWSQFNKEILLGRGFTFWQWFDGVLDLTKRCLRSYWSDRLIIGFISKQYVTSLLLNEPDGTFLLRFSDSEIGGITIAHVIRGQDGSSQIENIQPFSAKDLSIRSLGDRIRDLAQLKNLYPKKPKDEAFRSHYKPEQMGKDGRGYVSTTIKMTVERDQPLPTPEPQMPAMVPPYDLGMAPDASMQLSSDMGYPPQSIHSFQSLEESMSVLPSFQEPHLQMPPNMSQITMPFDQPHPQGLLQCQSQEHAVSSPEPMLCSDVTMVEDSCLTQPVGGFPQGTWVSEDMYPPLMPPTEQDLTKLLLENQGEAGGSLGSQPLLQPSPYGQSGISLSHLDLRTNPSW
Description: co-IP.

Experiment [1] deals with T2, endogenous STAT6 (mouse (endogenous in VSMCs)) (UniProt P52633).
T2 sequence: T1 sequence
Description: co-IP.

Experiment [2] concerns the target T3, recombinant glutathione S-transferase (GST)-fused STAT6 protein (UniProt P52633).
T3 sequence: T1 sequence
The experiment can be described thus: pull-down.

In the next experiment the target is HA-CBP (UniProt P45481). The experiment can be described thus: co-IP.

Consider “cAMP-response element binding protein (CBP) (from UniProt P45481 1-2441)”, for which the binding result (with Flag-tagged STAT6; in experiment [1]; in experiment [2]) was “binds” in each case.

B1: Flag-tagged STAT6 (protein, UniProt P52633 1-837)
chain: T1 sequence
Regarding B1, the binding entry with HA-CBP is recorded as “binds”.
